The supplement of paper PMC12819154, “High-throughput peptide-centric local stability assay extends protein–ligand identification to membrane proteins, tissues and bacteria” (Nature Structural & Molecular Biology, 2025)
The list shows a part of the results. Most entries show no effect beyond the scatter of the controls.

Sequences of proteins named here, by UniProt entry; tags and fusion partners are left off. A change or cut given only in a name is not applied to a line headed by its entry.
UniProt P58801, whole entry: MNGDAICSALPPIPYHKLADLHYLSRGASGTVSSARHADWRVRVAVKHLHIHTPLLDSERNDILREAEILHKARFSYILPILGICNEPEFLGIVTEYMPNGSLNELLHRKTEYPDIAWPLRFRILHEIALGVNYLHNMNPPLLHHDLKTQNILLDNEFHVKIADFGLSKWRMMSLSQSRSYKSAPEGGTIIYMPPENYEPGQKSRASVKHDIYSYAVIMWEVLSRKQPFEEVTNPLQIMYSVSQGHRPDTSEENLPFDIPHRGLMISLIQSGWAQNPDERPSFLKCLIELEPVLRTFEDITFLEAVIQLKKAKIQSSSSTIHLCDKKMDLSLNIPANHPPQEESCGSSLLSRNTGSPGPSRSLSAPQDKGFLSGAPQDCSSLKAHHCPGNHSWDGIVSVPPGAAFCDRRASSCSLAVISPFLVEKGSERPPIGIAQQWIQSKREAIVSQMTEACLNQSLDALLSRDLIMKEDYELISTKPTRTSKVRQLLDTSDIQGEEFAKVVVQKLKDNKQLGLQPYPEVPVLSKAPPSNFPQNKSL
UniProt P80318: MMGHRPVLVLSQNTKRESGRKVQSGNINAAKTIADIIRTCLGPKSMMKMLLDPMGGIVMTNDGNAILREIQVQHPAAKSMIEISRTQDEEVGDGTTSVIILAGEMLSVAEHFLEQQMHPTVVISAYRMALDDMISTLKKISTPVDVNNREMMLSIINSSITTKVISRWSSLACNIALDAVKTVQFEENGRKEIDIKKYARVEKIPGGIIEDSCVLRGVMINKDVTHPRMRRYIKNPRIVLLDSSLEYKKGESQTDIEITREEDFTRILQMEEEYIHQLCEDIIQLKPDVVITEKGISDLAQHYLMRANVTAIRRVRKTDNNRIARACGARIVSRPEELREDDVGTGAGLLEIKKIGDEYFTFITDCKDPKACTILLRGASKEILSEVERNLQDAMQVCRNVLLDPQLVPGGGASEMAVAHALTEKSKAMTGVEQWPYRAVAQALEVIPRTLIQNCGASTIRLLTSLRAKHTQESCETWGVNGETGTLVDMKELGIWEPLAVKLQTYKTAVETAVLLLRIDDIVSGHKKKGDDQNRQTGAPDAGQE
UniProt P83093, whole entry: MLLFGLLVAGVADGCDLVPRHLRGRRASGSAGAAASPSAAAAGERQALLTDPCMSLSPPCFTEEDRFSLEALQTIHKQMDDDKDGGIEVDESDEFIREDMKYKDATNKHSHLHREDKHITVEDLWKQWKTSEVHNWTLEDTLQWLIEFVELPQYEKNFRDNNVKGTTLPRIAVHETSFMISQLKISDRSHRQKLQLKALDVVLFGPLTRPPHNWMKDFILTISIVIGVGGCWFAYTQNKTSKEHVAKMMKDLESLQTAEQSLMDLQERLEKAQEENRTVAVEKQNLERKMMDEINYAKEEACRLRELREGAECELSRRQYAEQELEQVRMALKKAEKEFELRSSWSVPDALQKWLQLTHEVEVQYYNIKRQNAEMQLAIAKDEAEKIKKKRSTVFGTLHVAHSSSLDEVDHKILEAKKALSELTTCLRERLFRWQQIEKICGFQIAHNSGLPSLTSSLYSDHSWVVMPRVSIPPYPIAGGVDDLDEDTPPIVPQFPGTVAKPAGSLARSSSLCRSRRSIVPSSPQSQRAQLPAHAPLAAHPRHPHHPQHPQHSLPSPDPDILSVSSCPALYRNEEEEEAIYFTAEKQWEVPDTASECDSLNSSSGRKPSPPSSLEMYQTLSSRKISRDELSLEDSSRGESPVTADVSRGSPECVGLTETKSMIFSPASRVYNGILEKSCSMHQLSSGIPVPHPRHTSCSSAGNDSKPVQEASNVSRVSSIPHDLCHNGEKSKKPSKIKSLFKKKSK
UniProt P62962, whole entry: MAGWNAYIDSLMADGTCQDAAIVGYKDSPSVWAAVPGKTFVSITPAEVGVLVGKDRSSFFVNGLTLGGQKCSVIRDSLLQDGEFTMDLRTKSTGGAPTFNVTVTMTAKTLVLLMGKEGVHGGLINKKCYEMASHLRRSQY
UniProt P59913: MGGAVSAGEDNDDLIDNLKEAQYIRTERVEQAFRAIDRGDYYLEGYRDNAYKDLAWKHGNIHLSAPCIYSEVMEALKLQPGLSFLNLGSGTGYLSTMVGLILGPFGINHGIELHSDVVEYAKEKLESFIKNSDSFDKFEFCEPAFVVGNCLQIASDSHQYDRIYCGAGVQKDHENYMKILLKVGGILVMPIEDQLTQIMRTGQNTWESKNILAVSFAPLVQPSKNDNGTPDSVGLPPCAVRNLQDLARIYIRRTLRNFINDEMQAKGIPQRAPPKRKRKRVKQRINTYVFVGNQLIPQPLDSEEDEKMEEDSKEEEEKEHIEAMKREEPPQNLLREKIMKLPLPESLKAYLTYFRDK
UniProt P59222: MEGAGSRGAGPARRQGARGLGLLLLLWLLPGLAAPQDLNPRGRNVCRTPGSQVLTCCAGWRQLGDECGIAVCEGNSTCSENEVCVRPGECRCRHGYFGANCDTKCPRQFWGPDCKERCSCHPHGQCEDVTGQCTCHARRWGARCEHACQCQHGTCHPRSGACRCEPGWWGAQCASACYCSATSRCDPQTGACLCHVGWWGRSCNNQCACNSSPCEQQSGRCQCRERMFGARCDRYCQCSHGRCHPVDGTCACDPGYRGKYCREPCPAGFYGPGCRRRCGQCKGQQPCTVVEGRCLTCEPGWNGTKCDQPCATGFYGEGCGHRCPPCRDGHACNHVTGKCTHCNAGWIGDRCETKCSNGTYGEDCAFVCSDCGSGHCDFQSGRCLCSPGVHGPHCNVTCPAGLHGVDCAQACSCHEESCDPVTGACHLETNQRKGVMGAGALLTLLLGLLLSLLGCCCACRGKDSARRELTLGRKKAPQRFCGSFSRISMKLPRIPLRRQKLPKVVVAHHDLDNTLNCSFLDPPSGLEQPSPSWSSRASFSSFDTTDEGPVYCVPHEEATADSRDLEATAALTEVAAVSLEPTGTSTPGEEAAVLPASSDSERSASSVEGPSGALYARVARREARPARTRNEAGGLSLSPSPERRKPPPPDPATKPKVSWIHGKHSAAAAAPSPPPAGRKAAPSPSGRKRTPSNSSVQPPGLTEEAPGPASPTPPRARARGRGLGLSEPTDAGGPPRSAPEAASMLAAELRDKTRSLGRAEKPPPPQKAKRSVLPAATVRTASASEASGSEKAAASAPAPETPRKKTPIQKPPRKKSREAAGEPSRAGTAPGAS
UniProt P63030: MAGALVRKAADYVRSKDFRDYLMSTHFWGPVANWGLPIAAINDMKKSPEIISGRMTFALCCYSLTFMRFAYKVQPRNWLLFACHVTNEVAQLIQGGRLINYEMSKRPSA
UniProt P70168, whole entry: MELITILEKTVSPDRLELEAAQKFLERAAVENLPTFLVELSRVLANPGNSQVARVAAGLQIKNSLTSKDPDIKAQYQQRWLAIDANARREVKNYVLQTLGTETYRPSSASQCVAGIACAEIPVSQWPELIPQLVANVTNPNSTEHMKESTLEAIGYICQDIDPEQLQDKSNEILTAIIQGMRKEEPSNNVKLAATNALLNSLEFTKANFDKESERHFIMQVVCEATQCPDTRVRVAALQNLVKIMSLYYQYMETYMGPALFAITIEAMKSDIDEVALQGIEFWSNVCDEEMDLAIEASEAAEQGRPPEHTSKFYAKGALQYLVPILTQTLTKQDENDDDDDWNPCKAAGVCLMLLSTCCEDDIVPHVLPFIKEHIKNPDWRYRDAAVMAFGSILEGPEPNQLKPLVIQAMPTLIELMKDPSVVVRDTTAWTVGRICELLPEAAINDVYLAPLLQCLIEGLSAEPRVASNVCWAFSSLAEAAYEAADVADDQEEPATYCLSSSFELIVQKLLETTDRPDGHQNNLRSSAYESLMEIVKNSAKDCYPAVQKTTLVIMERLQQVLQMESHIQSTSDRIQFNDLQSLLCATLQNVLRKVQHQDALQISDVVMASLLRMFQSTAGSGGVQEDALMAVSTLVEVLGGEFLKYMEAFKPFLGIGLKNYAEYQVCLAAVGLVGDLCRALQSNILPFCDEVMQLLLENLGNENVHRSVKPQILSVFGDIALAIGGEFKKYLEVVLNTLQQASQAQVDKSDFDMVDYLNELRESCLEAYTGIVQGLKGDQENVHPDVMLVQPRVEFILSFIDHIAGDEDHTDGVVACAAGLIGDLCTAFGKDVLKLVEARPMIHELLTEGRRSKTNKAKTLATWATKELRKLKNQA
UniProt P58044: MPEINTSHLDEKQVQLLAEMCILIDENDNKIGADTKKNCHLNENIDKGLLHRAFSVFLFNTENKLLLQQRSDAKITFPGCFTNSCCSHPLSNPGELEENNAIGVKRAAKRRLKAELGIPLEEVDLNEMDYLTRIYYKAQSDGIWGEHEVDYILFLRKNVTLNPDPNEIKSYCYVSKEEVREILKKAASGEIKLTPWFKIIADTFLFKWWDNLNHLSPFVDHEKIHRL
UniProt P97328: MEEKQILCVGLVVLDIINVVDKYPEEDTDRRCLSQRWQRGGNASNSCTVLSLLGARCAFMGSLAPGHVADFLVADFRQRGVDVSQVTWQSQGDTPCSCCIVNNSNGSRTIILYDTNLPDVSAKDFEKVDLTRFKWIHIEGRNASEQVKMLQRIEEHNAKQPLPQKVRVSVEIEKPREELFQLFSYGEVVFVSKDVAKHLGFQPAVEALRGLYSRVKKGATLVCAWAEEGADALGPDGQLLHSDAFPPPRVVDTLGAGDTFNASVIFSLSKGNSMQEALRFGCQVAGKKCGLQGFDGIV
UniProt P97494: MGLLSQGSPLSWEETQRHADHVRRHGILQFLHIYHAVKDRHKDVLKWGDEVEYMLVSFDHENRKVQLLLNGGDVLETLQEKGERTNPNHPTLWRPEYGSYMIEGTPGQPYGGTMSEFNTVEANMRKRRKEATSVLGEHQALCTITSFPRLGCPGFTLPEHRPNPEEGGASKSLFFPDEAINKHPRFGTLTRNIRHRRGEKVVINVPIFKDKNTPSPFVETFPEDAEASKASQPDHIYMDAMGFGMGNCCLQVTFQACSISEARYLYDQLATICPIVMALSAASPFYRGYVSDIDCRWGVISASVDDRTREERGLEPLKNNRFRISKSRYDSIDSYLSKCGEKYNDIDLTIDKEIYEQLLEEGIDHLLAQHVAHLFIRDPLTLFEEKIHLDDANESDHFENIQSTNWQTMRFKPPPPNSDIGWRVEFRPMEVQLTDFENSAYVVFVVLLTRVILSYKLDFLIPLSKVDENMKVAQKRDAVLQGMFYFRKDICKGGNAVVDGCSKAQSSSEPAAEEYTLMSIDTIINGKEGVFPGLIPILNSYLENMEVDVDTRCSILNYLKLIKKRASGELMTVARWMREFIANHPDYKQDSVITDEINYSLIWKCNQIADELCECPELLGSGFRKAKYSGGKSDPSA
UniProt P70302, whole entry: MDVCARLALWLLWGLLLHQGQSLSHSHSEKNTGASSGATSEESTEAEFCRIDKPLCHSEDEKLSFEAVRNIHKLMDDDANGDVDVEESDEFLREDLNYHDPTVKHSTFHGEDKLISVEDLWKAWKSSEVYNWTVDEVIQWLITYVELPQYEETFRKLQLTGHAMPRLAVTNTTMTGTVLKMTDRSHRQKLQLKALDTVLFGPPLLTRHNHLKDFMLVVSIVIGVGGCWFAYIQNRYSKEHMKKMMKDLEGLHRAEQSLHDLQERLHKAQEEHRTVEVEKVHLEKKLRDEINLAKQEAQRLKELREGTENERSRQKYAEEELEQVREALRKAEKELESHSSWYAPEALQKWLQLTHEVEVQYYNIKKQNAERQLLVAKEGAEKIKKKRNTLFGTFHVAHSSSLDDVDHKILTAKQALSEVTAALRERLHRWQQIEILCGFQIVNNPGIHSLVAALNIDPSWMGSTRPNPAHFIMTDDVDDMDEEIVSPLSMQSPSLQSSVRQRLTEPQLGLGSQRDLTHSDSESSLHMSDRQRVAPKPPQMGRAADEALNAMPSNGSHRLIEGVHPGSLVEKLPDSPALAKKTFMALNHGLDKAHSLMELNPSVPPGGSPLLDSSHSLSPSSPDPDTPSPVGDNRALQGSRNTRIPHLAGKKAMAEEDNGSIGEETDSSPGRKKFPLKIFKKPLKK
UniProt P80317, whole entry: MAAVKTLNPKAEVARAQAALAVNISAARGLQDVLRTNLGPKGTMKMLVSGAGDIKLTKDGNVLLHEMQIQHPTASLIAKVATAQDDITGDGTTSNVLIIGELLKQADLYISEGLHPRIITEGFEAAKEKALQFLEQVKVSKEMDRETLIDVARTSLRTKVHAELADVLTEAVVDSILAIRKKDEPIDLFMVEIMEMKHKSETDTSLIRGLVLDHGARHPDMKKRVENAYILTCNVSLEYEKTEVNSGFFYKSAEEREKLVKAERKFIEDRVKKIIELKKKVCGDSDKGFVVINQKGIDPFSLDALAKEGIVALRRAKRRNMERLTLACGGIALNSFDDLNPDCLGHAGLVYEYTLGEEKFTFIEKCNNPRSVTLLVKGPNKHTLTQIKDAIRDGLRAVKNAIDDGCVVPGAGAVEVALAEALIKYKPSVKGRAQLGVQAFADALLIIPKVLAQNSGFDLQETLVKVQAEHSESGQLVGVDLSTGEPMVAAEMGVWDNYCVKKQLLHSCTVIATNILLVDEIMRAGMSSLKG

Compound: CN[C@@H]1C[C@H]2O[C@@](C)([C@@H]1OC)n1c3ccccc3c3c4c(c5c6ccccc6n2c5c31)C(=O)NC4 [staurosporine]
Experiment: log2 fold change of pooled soluble protein (PISA), ligand vs vehicle (log2 ratio); higher = more thermally stabilized
Conditions: ligand concentration: 20 uM; assay format: PISA pool 52.9/55.5/58.6 C

Target | log2 fold change of pooled soluble protein
UniProt P70460 | -0.122
UniProt P60904 | -0.0555
UniProt P97300 | 0.304
UniProt P97499 | -0.0364
UniProt P70362 | -0.0664
UniProt P58801 | -0.0677
UniProt P80318 | 0.0496
UniProt P70335 | 0.398
UniProt P97430 | 0.105
UniProt P58389 | -0.522
UniProt P97501 | -0.037
UniProt P70333 | 0.105
UniProt P83093 | -0.0362
UniProt P58281 | -0.0876
UniProt P70318 | -0.0218
UniProt P62962 | -0.153
UniProt P59913 | -0.138
UniProt P59222 | 0.0974
UniProt P63030 | -0.0556

Target | log2 fold change of pooled soluble protein
UniProt P70168 | 0.0896
UniProt P58044 | -0.0455
UniProt P56959 | -0.071
UniProt P70665 | -0.0217
UniProt P97328 | -0.00799
UniProt P58404 | 0.249
UniProt P97494 | -0.0839
UniProt P80315 | -0.018
UniProt P61148 | -0.0085
P61205;P84078;Q8BSL7 | 0.266
UniProt P70302 | 0.0656
UniProt P70288 | 0.0845
UniProt P58269 | -0.149
UniProt P85094 | 0.0344
UniProt P70452 | -0.134
UniProt P80317 | 0.0195
UniProt P58466 | 0.148
UniProt P97379 | 0.051

A portion taken from the entries so far, as a working copy:
Target | log2 fold change of pooled soluble protein
UniProt P97328 | -0.00799
UniProt P58404 | 0.249
